System: α2-AMPK
Settings: read-out: EC50 for AMPK activation; hypothalamic slices, 30 min, different concentrations

EC50: ~10 nM
SMILES: CN1CCN(C2=Nc3cc(Cl)ccc3Nc3ccccc32)CC1 [Clozapine]

Source: patent publication US8148095B2, “Methods for predicting psychotropic drugs which elicit weight gain” (The Johns Hopkins University, priority 2006, dated 2012)
